Experimental data taken from paper PMC7819943, “Rice protein-binding microarrays: a tool to detect cis-acting elements near promoter regions in rice”.
This is one part of the list.

Amino acid sequences for entries named in this document (tags omitted).
UniProt Q0JBA9, entry or part of it: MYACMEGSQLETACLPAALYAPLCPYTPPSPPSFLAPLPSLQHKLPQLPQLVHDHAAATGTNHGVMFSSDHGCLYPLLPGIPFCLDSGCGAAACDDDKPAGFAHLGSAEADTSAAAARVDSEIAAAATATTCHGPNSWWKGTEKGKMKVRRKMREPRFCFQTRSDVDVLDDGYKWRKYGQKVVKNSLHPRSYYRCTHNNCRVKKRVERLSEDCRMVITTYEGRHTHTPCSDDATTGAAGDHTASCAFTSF

Molecular target: OsWRKY34 (Oryza sativa, UniProt Q0JBA9 1-250)
Assay: protein-binding microarray (RPBM); PBS, 2% BSA, 51.3 ng/ul salmon testes DNA, 50 uM zinc acetate, 200 nM TF, 25 C, 1 h; high values mean tight binding
Conditions: protein: recombinant; tags: N-terminal polyhistidine and DsRed monomer fusion (pET32a); label: CyDye5-dUTP incorporated in the synthesized complementary strand; 3' TTTTT single-stranded linker to array surface; dsDNA, one strand shown
Procedure, shortened: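 The binding signal for each feature is its fluorescence intensity in arbitrary units. An Axon 4000B scanner was used to read a custom Agilent array that had been made double-stranded with Cy5-dUTP primer extension, blocked with 2% BSA, incubated at 25 °C for 1 h with 200 nM protein in PBS, 2% BSA, salmon testes DNA and 50 µM zinc acetate, and washed. The protein was an N-terminal polyhistidine–DsRed transcription factor fusion from E. coli BL21-CodonPlus, purified on Ni–NTA.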

| Sequence | binding signal |
| --- | --- |
| CATGTGTTTTAGGGTTGTTTATTTTAAGACGGCGAAAGTACGGAGTCACCTAGTGCAG | 12300 fluorescence intensity (a.u.) |
| TATCTACAGTACCATAACTTATATTTTGGTTTACCATCGACGGAGTCACCTAGTGCAG | 9950 fluorescence intensity (a.u.) |
| TTTATTCGATTCGTTCTGTTCCTACTCACGCCGTGTCAGACGGAGTCACCTAGTGCAG | 11600 fluorescence intensity (a.u.) |
| GGGATGTTTGGTGTACTTTTTCCTCCTACTAATGTCCCAACGGAGTCACCTAGTGCAG | 9570 fluorescence intensity (a.u.) |
| TTCTTCTTCAATCTGGGGCTGTCTCCCAGCTTGTTCATTTCGGAGTCACCTAGTGCAG | 8340 fluorescence intensity (a.u.) |
| GGCGGGGTTGGGGCGGCAGGCGGCTGTGAGGTTCTTGATTCGGAGTCACCTAGTGCAG | 16100 fluorescence intensity (a.u.) |
| AAGTGTTTTTATTTTTGTCATATCTATCATATTTAATTTCCGGAGTCACCTAGTGCAG | 10100 fluorescence intensity (a.u.) |
| GCCCAGATTCATAGTTCTAGAATACGTCCCATCAGGTTTTCGGAGTCACCTAGTGCAG | 8230 fluorescence intensity (a.u.) |
| GATTCCGAAACGGCTAAAACCGCTTTCACACTGCCTCTTTCGGAGTCACCTAGTGCAG | 8670 fluorescence intensity (a.u.) |
| TTTTGGTACGTTATCCGTGTTTGAATCGGTTTTTAAGTTCCGGAGTCACCTAGTGCAG | 10800 fluorescence intensity (a.u.) |
| CTTTCGCCTCATCATCTTCGCCTGTGCGGTCCTTTGACAACGGAGTCACCTAGTGCAG | 8550 fluorescence intensity (a.u.) |
| TGTATCCCTATTCTTATTCTACCTTGTTCTAGTCAAACACCGGAGTCACCTAGTGCAG | 10300 fluorescence intensity (a.u.) |
| TAATATTTGTAGTGTTCGAGTAGGAATCTGTTTTTATTTTCGGAGTCACCTAGTGCAG | 8780 fluorescence intensity (a.u.) |
| GCATACCTCTTCAGCTTTTCTTAGGTCCCATTCTTCTCTCCGGAGTCACCTAGTGCAG | 11400 fluorescence intensity (a.u.) |
| TATGATCTTTCTATGCTTAAGGTTCCTCATGACATAACTGCGGAGTCACCTAGTGCAG | 10000 fluorescence intensity (a.u.) |
| CGACGGTTTGGATTATTTCTACTTGTAGTATATACTACAACGGAGTCACCTAGTGCAG | 8410 fluorescence intensity (a.u.) |
| GCATCACTATTCACTCCATGTTCTCTCTTCCTACTCTCCACGGAGTCACCTAGTGCAG | 8250 fluorescence intensity (a.u.) |
| TGCTTTTCAGTTACGTTCTCCGTTAGTCCGTTTTGCTTTTCGGAGTCACCTAGTGCAG | 11200 fluorescence intensity (a.u.) |
| TGTGTCATGTTCTGATTGGCTGTGGTTGGTTTGATTTTCTCGGAGTCACCTAGTGCAG | 10600 fluorescence intensity (a.u.) |
| GCTTTTGAATGTAATCGTTGCGACAACGCCGTTGCCCTTGCGGAGTCACCTAGTGCAG | 8640 fluorescence intensity (a.u.) |
| AACGCTCACTGTTCATCGCCGTAATTAAATTAAATTAAATCGGAGTCACCTAGTGCAG | 8660 fluorescence intensity (a.u.) |
| TGGGACTCGCCCTGTGCATTTCCGTGGCGATCGCTTCTGACGGAGTCACCTAGTGCAG | 8220 fluorescence intensity (a.u.) |
| TCTGTTTCAGGTTATAAGATGTTTTGACTTTGGTCAAAGTCGGAGTCACCTAGTGCAG | 8030 fluorescence intensity (a.u.) |
| GATATTTAGTCACTATTCACTCACAAAATTTGTTGCATTTCGGAGTCACCTAGTGCAG | 11200 fluorescence intensity (a.u.) |
| CGCCTCCGTCGCCATCCCGCTCGCCCTCGCCGCCTCCAGCCGGAGTCACCTAGTGCAG | 10900 fluorescence intensity (a.u.) |
| CGCCGACGGTCAGCCTCCACACCCCGGCTTCTCTCCCGCGCGGAGTCACCTAGTGCAG | 8820 fluorescence intensity (a.u.) |
| GCTCAGATTGTTCATCAAGTTTTTCCTCTGTGCTCTGTTTCGGAGTCACCTAGTGCAG | 8890 fluorescence intensity (a.u.) |

| Sequence | binding signal |
| --- | --- |
| CCCCGCCGCCGTTCCCGCCATCAGCTGCCGCCACCCTGGGCGGAGTCACCTAGTGCAG | 9890 fluorescence intensity (a.u.) |
| TCCAGGCCATGCGTTTTTTTCTTTCCCTCCGAATTGCTTACGGAGTCACCTAGTGCAG | 8830 fluorescence intensity (a.u.) |
| CAAGTAGCCACAAACTGTCCTTGTGTTCCCCTTGCACGTCCGGAGTCACCTAGTGCAG | 8880 fluorescence intensity (a.u.) |
| GCCATGTATTATAATTCTTTACACAAAATGTAGCAAGCAACGGAGTCACCTAGTGCAG | 9370 fluorescence intensity (a.u.) |
| TCCTTCCCTAAATGTTTGACGCCGTTGACTTTTTTAAACACGGAGTCACCTAGTGCAG | 16600 fluorescence intensity (a.u.) |
| ATTTCTTCCATTTTAAGTTTATTTTATCATCTTTGTATATCGGAGTCACCTAGTGCAG | 10500 fluorescence intensity (a.u.) |
| TTTTCCACTTCTCACTCTCCATCTTCTTCAACAGTTGCACCGGAGTCACCTAGTGCAG | 9820 fluorescence intensity (a.u.) |
| CTTAGACTGTGTTCTTTTCCATGGGTTCCAACCCACCCCTCGGAGTCACCTAGTGCAG | 9210 fluorescence intensity (a.u.) |
| GGGTCTAGATATTTTCATATATGGTATATTTATTATGCAACGGAGTCACCTAGTGCAG | 10500 fluorescence intensity (a.u.) |
| GGTGGGTTCTCTTCTTCTTCTTCTCCTTGGAGCTCAGTTCCGGAGTCACCTAGTGCAG | 14700 fluorescence intensity (a.u.) |
| GTGCTCCCACATCGTCCGCCGCTAGATATTTTACTCTACTCGGAGTCACCTAGTGCAG | 9600 fluorescence intensity (a.u.) |
| TTTGGTGTTGGTATTATTGGGGTTTGAAAGAGTTAATTAGCGGAGTCACCTAGTGCAG | 12000 fluorescence intensity (a.u.) |
| TTTGCCTCCTCATCTCCTTTACGTGGGCTTTTCTATCCCACGGAGTCACCTAGTGCAG | 8540 fluorescence intensity (a.u.) |
| TTCTGAGTGTATAATTAATGTTTATGTGGTCACGTACTTGCGGAGTCACCTAGTGCAG | 8840 fluorescence intensity (a.u.) |
| GCTTTTTCTTTGTTTTTTTTTTTGGCTCGAGTGCGCCTTCCGGAGTCACCTAGTGCAG | 11000 fluorescence intensity (a.u.) |
| GTTTAGATTCGTTGTACTTAGATTATGTTACATCTCATTCCGGAGTCACCTAGTGCAG | 8050 fluorescence intensity (a.u.) |
| ATGCATCACAGCCACCGGTGCGTGGCCCATCTCCAATTCTCGGAGTCACCTAGTGCAG | 8780 fluorescence intensity (a.u.) |
| CCATTATATGCCTCTGAATTTTTCACACGTCCACGATTTGCGGAGTCACCTAGTGCAG | 8830 fluorescence intensity (a.u.) |
| CAAAGAAATCCAAGCACCGCCGCCTCTCTCTGCTCTACCCCGGAGTCACCTAGTGCAG | 8450 fluorescence intensity (a.u.) |
| TACCAACCACCGTCCACGAGTGTGCCGCCGCCGCCGCCTCCGGAGTCACCTAGTGCAG | 9860 fluorescence intensity (a.u.) |
| GTACTCACTAATAGCATTTTTTTCTTCTTTTTCTTTCTCTCGGAGTCACCTAGTGCAG | 8830 fluorescence intensity (a.u.) |
| GCTCTTTCTGTTGACCAAGCCACAGGCAGTTTGACATCAACGGAGTCACCTAGTGCAG | 9530 fluorescence intensity (a.u.) |
| GTCGAAAGATTATATATTCAGGGTCGTTTGTCTCTTACATCGGAGTCACCTAGTGCAG | 8250 fluorescence intensity (a.u.) |
| CTCTATGTGGATTTGTAGTAGTGTATATATATATATATATCGGAGTCACCTAGTGCAG | 8700 fluorescence intensity (a.u.) |
| ATTAAAATTATTTCTCGAGCTCCGAAAATTTGCGAGAAATCGGAGTCACCTAGTGCAG | 9620 fluorescence intensity (a.u.) |
| GGCTAATCAATGACTCTGACCTATTTGTCGATCTCTTATACGGAGTCACCTAGTGCAG | 8260 fluorescence intensity (a.u.) |
| ATCAAAGTTTCCACTGTATGTTGACCATGTAAAGTCAACTCGGAGTCACCTAGTGCAG | 9730 fluorescence intensity (a.u.) |

Reprinted from the results shown for reference:

| Sequence | binding signal |
| --- | --- |
| GTTTAGATTCGTTGTACTTAGATTATGTTACATCTCATTCCGGAGTCACCTAGTGCAG | 8050 fluorescence intensity (a.u.) |
| ATGCATCACAGCCACCGGTGCGTGGCCCATCTCCAATTCTCGGAGTCACCTAGTGCAG | 8780 fluorescence intensity (a.u.) |
| CCATTATATGCCTCTGAATTTTTCACACGTCCACGATTTGCGGAGTCACCTAGTGCAG | 8830 fluorescence intensity (a.u.) |
